The supplement of paper PMC7666118
Some of the results follow.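 Rule for the calls: active = dose-dependent thermal stabilisation significant by F-test of dose-response against flat model at 10% FDR; inactive = not significant.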

By UniProt entry, the sequences of proteins in these tests, tags left out. Where a name states a change or a piece, a line headed by the entry shows the natural chain unless it says otherwise.
UniProt Q01085: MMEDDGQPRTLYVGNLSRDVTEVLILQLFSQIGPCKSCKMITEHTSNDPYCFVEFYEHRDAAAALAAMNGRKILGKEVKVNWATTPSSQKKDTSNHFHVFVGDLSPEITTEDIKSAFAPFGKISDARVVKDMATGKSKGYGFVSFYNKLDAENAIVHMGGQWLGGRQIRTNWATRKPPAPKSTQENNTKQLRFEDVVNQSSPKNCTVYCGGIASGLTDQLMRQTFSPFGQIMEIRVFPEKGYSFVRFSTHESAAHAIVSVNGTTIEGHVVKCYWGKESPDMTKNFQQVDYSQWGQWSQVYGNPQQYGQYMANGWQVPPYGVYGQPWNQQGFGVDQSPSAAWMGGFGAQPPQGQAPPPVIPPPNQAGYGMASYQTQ
UniProt Q8TC07: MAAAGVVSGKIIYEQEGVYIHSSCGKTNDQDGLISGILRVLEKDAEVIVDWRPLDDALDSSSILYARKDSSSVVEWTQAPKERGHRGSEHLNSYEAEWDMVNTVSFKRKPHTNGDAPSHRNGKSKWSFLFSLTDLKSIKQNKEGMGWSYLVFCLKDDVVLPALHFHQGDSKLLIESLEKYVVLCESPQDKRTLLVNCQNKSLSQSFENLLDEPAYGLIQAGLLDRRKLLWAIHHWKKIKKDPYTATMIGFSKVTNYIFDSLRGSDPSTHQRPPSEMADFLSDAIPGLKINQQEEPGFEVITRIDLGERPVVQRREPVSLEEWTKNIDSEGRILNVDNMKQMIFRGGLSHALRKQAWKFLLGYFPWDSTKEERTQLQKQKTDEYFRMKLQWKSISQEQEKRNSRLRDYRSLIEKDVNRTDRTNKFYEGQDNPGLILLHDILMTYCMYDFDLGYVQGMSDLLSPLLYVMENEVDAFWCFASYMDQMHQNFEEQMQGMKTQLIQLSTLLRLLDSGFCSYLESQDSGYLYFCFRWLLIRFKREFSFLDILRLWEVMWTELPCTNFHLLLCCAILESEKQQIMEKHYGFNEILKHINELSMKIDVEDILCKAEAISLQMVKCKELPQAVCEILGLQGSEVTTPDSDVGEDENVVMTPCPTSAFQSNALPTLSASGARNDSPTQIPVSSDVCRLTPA
UniProt P26639: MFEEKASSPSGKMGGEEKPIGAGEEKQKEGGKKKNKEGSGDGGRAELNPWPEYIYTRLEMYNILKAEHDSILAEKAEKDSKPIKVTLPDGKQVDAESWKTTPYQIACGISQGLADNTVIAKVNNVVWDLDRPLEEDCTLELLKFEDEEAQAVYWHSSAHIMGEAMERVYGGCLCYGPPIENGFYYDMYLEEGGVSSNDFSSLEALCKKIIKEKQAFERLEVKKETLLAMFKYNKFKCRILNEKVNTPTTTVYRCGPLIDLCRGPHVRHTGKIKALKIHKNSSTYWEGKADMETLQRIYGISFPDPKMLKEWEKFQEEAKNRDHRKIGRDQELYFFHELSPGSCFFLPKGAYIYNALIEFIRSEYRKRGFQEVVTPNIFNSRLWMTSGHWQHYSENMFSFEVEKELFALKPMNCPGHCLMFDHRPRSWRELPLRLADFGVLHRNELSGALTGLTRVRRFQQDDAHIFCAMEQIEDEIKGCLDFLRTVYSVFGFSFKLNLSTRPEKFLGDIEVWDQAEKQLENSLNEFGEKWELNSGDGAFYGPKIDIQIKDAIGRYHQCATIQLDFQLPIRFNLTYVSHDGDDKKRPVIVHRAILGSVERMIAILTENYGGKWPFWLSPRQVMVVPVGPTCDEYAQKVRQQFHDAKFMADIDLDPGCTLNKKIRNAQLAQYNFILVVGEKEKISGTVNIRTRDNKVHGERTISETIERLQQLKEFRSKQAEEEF
UniProt Q71U36, whole entry: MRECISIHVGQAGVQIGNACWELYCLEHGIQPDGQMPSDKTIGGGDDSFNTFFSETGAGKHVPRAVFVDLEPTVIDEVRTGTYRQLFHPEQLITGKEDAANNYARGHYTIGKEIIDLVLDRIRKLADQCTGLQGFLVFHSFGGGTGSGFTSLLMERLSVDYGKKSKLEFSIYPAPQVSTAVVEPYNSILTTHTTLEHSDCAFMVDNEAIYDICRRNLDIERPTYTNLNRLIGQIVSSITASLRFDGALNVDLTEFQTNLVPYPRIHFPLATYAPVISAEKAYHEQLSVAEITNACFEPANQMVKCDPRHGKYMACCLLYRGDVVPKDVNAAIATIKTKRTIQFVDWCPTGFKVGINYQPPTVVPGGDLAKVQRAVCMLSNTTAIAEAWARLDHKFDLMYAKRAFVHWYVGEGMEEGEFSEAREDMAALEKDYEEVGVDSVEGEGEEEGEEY
UniProt Q12931: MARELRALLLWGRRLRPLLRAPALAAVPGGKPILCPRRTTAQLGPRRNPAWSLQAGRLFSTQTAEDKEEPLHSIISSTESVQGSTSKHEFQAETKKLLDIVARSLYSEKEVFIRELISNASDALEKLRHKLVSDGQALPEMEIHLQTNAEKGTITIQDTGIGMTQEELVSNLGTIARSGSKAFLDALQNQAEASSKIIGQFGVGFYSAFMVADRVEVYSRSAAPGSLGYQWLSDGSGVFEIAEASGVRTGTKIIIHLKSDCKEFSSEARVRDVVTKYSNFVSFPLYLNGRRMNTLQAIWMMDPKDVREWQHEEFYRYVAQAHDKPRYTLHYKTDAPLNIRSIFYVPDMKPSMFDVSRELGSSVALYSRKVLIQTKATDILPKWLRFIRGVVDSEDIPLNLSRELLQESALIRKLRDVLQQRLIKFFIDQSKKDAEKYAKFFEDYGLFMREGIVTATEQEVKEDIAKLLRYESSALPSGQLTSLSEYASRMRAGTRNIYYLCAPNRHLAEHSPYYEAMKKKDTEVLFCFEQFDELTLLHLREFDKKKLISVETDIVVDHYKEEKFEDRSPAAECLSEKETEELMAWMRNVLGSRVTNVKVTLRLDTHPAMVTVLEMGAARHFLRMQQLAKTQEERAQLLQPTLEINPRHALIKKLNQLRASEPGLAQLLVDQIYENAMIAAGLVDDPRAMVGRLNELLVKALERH
UniProt Q13395: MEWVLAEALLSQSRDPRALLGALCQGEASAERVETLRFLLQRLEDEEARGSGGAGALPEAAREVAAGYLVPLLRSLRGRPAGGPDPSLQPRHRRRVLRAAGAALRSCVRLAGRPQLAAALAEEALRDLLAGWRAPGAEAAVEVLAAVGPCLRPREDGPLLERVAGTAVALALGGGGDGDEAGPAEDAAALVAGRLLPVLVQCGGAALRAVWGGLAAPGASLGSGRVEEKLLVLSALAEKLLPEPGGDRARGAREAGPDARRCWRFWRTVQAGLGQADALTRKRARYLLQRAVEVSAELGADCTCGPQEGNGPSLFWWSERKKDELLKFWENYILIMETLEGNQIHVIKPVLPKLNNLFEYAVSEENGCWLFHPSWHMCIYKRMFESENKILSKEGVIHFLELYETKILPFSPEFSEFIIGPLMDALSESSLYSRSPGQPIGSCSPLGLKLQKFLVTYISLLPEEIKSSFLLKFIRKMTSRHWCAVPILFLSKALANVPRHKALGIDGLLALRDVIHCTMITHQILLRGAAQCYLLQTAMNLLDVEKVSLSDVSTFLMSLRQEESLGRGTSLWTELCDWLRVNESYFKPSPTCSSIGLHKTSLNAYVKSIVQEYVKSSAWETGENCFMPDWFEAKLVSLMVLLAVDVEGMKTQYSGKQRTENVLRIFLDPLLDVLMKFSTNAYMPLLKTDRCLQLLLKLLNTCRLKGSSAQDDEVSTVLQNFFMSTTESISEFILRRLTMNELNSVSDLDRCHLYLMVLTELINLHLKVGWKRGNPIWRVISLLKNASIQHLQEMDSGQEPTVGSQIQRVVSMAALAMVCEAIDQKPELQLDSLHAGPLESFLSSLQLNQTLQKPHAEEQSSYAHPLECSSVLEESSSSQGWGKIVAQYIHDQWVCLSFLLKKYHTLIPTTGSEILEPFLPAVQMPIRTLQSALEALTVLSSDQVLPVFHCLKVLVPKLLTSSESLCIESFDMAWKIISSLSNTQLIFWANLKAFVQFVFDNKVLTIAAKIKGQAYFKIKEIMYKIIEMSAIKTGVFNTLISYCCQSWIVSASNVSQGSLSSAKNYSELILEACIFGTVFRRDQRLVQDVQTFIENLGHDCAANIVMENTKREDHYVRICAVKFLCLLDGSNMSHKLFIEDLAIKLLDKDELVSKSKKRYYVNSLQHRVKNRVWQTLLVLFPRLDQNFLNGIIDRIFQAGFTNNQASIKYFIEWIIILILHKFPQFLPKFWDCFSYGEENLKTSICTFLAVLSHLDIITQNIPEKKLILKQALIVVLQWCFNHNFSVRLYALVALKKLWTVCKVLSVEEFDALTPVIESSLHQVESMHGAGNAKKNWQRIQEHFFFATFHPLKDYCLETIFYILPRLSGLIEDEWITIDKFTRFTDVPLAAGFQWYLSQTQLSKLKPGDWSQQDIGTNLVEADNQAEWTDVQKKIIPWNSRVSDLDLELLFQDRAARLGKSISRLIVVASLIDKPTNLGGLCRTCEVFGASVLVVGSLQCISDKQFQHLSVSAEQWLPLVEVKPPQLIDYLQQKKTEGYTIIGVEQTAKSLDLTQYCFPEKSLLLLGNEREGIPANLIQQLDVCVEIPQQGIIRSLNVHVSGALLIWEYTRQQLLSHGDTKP
UniProt Q8NCE0: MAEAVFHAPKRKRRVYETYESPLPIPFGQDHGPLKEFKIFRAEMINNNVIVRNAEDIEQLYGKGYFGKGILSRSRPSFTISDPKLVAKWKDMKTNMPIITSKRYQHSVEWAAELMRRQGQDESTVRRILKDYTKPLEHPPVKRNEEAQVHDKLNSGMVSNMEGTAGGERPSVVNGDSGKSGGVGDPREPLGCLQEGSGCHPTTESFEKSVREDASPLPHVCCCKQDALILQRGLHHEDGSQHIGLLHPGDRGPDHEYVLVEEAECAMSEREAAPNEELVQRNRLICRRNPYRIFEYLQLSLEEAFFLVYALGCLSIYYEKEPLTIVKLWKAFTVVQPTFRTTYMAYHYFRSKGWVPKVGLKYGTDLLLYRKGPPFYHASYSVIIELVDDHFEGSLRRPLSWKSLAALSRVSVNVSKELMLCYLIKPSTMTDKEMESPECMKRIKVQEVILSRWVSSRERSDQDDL

compound: Nc1nc2c(ncn2[C@@H]2O[C@H](COP(=O)(O)OP(=O)(O)OP(=O)(O)O)[C@@H](O)[C@H]2O)c(=O)[nH]1; experiment: dose-dependent thermal stabilisation call (2D-TPP, DLPTP, 10% FDR) (binary (1 = stabilised)); higher = stabilised by the compound; conditions: system: Jurkat gel-filtered lysate; concentration range 1-500 µM

dose-dependent thermal stabilisation call, inactive:
TIAL1 (UniProt Q01085) 0, TBC1D15 (UniProt Q8TC07) 0, TARS (UniProt P26639) 0, TRMT61B (UniProt Q9BVS5) 0, TUBA1A (UniProt Q71U36) 0, TRAP1 (UniProt Q12931) 0, TARBP1 (UniProt Q13395) 0

dose-dependent thermal stabilisation call, active:
TSEN2 (UniProt Q8NCE0) 1
